Test results reported in US20170158761A1 (EWHA UNIVERSITY INDUSTRY COLLABORATION FOUNDATION, published 2017).

Assays:
[1] = molecular target: Del-N11dTCTP (N-terminus deleted dimer TCTP, HRF); assay: ELISA on immobilised biotinylated dTBP2
[2] = molecular target: Del-N11dTCTP (N-terminus deleted dimer TCTP, HRF); assay: ELISA: biotinylated dTBP2 (0.01 to 10 µM) on streptavidin plate, TCTP protein at 0.2 µg/ml, anti-HRF rabbit antibody detection

B1: biotinylated dTBP2 (dTCTP binding peptide 2) (peptide)
peptide: WYVYPSM
modifications: biotin conjugated to the COOH-terminus
Question: Which binding [1] does the source give for B1 here?
Answer: binds

Question: And the binding [2]?
Answer: binds

Results are given in words; binding and its absence hold for the method and conditions named. A result given as binding can be weak or reduced; the word gives no strength.
